Primary screen of a compound library

Amino acid sequences for entries named in this document (tags omitted). Residues count along the entry.
UniProt P9WNZ1, whole entry: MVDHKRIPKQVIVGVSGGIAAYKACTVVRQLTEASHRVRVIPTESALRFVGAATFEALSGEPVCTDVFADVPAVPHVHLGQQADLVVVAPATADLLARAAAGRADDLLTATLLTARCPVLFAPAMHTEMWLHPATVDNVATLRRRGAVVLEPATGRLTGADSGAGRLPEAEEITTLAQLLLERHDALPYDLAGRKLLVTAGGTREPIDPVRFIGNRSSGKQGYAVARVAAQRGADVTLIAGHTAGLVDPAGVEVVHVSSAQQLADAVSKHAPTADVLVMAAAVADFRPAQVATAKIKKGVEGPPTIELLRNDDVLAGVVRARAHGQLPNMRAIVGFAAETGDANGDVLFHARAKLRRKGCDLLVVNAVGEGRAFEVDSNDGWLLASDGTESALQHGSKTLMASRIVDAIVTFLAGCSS
UniProt A4I591, 1-473: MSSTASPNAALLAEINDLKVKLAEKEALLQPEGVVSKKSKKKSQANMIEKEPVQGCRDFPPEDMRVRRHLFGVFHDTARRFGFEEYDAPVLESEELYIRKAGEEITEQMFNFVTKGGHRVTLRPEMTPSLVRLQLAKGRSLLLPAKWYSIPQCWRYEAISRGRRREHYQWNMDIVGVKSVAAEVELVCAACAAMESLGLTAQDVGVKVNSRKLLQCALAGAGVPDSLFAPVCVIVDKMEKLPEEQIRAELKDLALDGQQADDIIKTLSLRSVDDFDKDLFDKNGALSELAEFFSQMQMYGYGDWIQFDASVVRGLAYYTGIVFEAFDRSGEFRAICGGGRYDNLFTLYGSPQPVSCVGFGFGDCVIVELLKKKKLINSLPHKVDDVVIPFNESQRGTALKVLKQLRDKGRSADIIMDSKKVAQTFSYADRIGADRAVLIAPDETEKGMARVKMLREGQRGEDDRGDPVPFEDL

Source: ChEMBL document CHEMBL3988442, “University of Dundee, Small-Polar-MMV Screening Library” (2021).

A: 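Enzyme assay of CoaBC with a phosphate dye (Biomol Green) read at 650 nm. Target: Coenzyme A biosynthesis protein CoaBC, Mycobacterium tuberculosis (UniProt P9WNZ1). Tested at 30 µM. Direction is inferred from only a few compounds that gave an IC50; most scored high, so higher reads as stronger inhibition. Most strong results did not repeat in a second test. Size under these conditions: about 67,000 compounds, about 40 of them at 50% or above in at least one test.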
B: 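Histidine-tRNA ligase, Leishmania infantum (UniProt A4I591). Enzyme assay of histidyl-tRNA synthetase; the read-out is not stated. Compounds at 30 µM. The record gives no direction; compounds that gave an IC50 in retests scored well above the rest, so higher reads as stronger inhibition. The assay is labelled LdHisRS but filed under L. infantum. Size under these conditions: about 69,000 compounds, about 410 of them at 50% or above in at least one test.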
C: 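Cell assay of Leishmania donovani living inside macrophages; the read-out is not stated. Concentration: 30 µM. Higher reads as stronger inhibition (inferred: compounds with an IC50 in retests scored well above the rest). Of about 69,000 compounds tested this way, about 1,000 (1.5%) reached 50% or more in at least one test.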

Each number is a percent effect as filed. The controls that fix the scale are not given in the record; negative values are as filed. The compounds are a random part of those screened. Two or more numbers in one place are separate tests of the same structure; such repeats can differ widely. A dash means the value is not listed here; it may have been measured.

Compound	A	B	C
CCOCC(=O)NC(C)c1cc(C)ccc1C (stereo not drawn)	-3.024	6.061	-2.709
CCOC(=O)N1CCC(C(=O)Nc2nnc(C(F)(F)F)[nH]2)CC1	-4.194	3.947	-1.721
Cc1ccc(C2CSCCN2C(=O)c2cccs2)o1 (stereo not drawn)	-5.499	2.151	15.58
Cc1ccsc1C(=O)NC(C)c1ccc2c(c1)CCC(=O)N2 (stereo not drawn)	-	22.86	9.65
COCc1cc(C[C@@H]2CC[C@H](O)[C@@H](CNCC(C)C)O2)no1	12.77	2.703	10.46
Cc1ccc(-c2cc(CNC(=O)N3CCC(CO)CC3)on2)cc1	1.686	12.31	7.426
CCOCC1CN(C(=O)[C@H]2CCCO2)Cc2nnn(CC3CC3)c21 (stereo partly drawn)	-	8.547	10.29
CC(Sc1n[nH]c(-c2ccc3c(c2)CCC3)n1)C(N)=O (stereo not drawn)	-5.374	23.89	18.7
CCS(=O)(=O)CCN(C)Cc1cc(C)ccc1OC	-0.5051	2.632	6.115
Cn1nc(C2CCCN2)c2c(C(=O)NCC(F)(F)F)cc(C3CC3)nc21 (stereo not drawn)	-2.105	5.517	5.935
Cc1cccc(CN(C(=O)CCn2cncn2)C(C)C)c1	7.732 and 50	9.89	-3.236
O=C(O)C(F)(F)F.O=C(O)C(F)(F)F.[H][C@@]12CN(CCOC)CCO[C@]1([H])CN(Cc1sccc1C)C2	-	-	0.9671
Cc1cccc(N2N=C(C(=O)NC(C)Cc3ccco3)CCC2=O)c1 (stereo not drawn)	6.211	14.29	14.73
C[C@@H]1CN(CCc2ccccc2)C[C@]12CCN(CC(=O)N(C)C)C2=O.O=C(O)C(F)(F)F	-	-	-13.42
OCC1CCCN1c1cc(NCCc2ccccn2)ncn1 (stereo not drawn)	4.43	22.89	47.66
CC(=O)N1CCc2c(nc(N(C)C)nc2N(C)CCC2CCCCO2)C1 (stereo not drawn)	0.2049	-4.286	-23.74
O=C(N1CCOCC1)N1CCc2ncnc(Oc3cccnc3)c2CC1.O=C(O)C(F)(F)F	-	-	13.92
COCC(=O)NC1CC2(CCN(CCF)CC2)Oc2ccccc21 (stereo not drawn)	2.66	2.439	-
CCOC1CCN(C(=O)Nc2ccc(=O)n(C)c2)CC1	8.158	113.9	-17.64
Cc1cc(C)cc(CN2CCN(Cc3cccc(CCN)c3)CC2=O)c1	-30.09	29.51	22.43
CN(C)CCOCc1nnc2n1CCN(Cc1ccco1)C2	-45.29	36	-
O=C(O)C(F)(F)F.O=C(O)C(F)(F)F.[H][C@@]12CN(Cc3cnn(C)c3)CCO[C@]1([H])CN(C1CCCC1)C2	-	-	10.71 and -1.331
Cc1ccc2oc(=O)n(CC(=O)N3CCC4(CC3)CN(C)C(=O)O4)c2c1	-0.7371	15.05	12.29
COCCC1(C(=O)O)CCCN(Cc2cc3c(cc2C)OCO3)C1 (stereo not drawn)	8.696	4.225	33.89
O=C(CCSc1ccccc1)NCC1CCN(Cc2ccsc2)CC1	3.008	24.72	-30.94
O=C(O)CCn1ccc2c(nnc3c(-c4ccc(F)cc4)cnn32)c1=O	3.137	-1.205	-80.57
CC(NC(=O)NCc1ccccn1)c1ccc2c(c1)CCC(=O)N2 (stereo not drawn)	1.912	7.692	20.57
NCCC(=O)NCC1(O)CCCN(c2ccnc3cccnc23)C1 (stereo not drawn)	-4.205	11.59	34.76
CC(C)c1nccn1C1CCCN(C(=O)c2cc(C3CC3)on2)C1 (stereo not drawn)	1.695	18.42	34.62
CN1CCc2c(CNc3ncccn3)n[nH]c2C1.O=C(O)C(F)(F)F	-	-	-27.68
O=C(CC1CC1)N1CCC2(CCCN(CCOc3ccccc3)C2)C1.O=C(O)C(F)(F)F (stereo not drawn)	-	-	4.147
Nc1cnc(-c2cccc3ccnn23)cn1	-2.451	6.667	-17.93
c1ccc2cc(OCCN3CCOC(Cn4cncn4)C3)ccc2c1 (stereo not drawn)	-1.305	18.92	7.838
O=C(O)CCn1ccc(=O)c2cc(F)ccc21	4.177	17.5	-7.679
Cc1nc(N2CCOCC2)nc2c1CCN(Cc1ccsc1)CC2	-2.336	11.84	-
CNC(=O)CN(C)c1cncc(OCc2ccccc2)n1	2.871	3.333	-28.17
CCCS(=O)(=O)N1CCN(c2ccnc(N3CCCC3)n2)CC1	-21.93	9.524	18.87
Cc1ccc(C(=O)NC2CCN(C(=O)Nc3ccncc3)CC2)o1	5.483	11.5	7.766
O=C(NCc1cc[nH]n1)NCC(O)COc1cccc(F)c1 (stereo not drawn)	-2.477	6.757	-24.55
O=C(NCC(F)F)N1CCC(n2ccc(C(F)(F)F)n2)CC1	9.595	13.46	4.904
COc1ccccc1C1(C(=O)NCCN2CCOCC2)CCOCC1	1.542	-2.381	26.52
O=C(CC1CC1)N1CC[C@H]2OCC[C@@]2(COc2ncccc2F)C1	16.36	19.74	-
CO[C@H]1C(=O)N(C)C2(CCNCC2)[C@@H]1C(=O)Nc1ccccc1	1.937	20.41	-4.499
CCN(C(=O)CN1CCC(c2cc3ccccc3[nH]2)CC1)C1CC1	-5.104	0	-31.43
CCn1cnnc1C1CCN(C(=O)c2ccc(OC(C)C)nc2)CC1	-0.6017	6.742	-9.28
COCC1CN(Cc2ccncc2)Cc2nn(CC3CC3)cc21 (stereo not drawn)	6.853	17.65	-
COC(=O)c1cc(CN2CCN(c3nc(C)cnc3C)CC2)ccc1O	1.535	14.75	25.91
CC(=O)N1CCC2(CCCN(C(=O)CCN3CCCCC3)C2)C1 (stereo not drawn)	-0.7634	15.53	15.63
CC(CN1CCOC1=O)NC(=O)c1ccccc1Oc1ccccc1 (stereo not drawn)	-28.59	0	-30.01
CC(C)n1ccnc1CN1CCCN(C(=O)c2cccnc2O)CC1	-6.218	21.28	8.919
COc1ccccc1Cc1cc(O)nc(NC(C)CN(C)C)n1 (stereo not drawn)	-1.826	9.396	-15.1
C/C(=C/c1ccccc1)CNCc1cccc(C(N)=O)c1	-4.538	7.937	-3.592
CNc1nc(C(=O)NCC2CCOc3ccccc3C2)cs1 (stereo not drawn)	-5.283	6.202	13.54
OC1(CNCCc2nc3c(s2)CCCC3)CCNC1 (stereo not drawn)	-18.18	28.72	24.52
CN(C)C(=O)COCC1CN(S(C)(=O)=O)Cc2ncn(C)c21 (stereo not drawn)	2.963	16.67	-
CCS(=O)(=O)NCCNc1cc(-n2cccc2)ncn1	-7.822	13.91	15.94 and 36.12
CC(C)Cc1cc(C(=O)NCC(c2ccc(F)cc2)N(C)C)n(C)n1 (stereo not drawn)	-	12.5	4.638
[H][C@@]12CS(=O)(=O)C[C@]1([H])N(Cc1ccc3nsnc3c1)CCN2CCOC	-	-	10.37
O=C(CCN1CCNCC1)N1CCC2(CC1)c1ccccc1CC2O (stereo not drawn)	-0.6031	15.2	17.72
[H][C@]12CN(c3ncccn3)C[C@@]1([H])S(=O)(=O)CC[C@@H]2C(=O)NC(C)C	-	-	29.69
O=c1ccc(S(=O)(=O)N2CCCC2)cn1CC1CCCCO1 (stereo not drawn)	3.145	12.39	3.858
Cc1cc(-c2cc(-c3cc(CC(=O)O)cs3)nc(N)c2C#N)oc1C	7.275	40.32	-20.89
CN(C)S(=O)(=O)c1ccc(CSCC(=O)NC(C)(C)C)o1	-2.101	12.82	15.72
CC(C)(C)c1cc(NC(=O)CN2CCCC2Cn2cccn2)on1 (stereo not drawn)	-6.166	6.838	5.831
CN1CCN(Cc2cn3c(n2)CN(C(=O)N2CCOCC2)CC3)CC1.O=C(O)C(F)(F)F.O=C(O)C(F)(F)F	-	-	-6.738
Cc1noc(CN(C)CC2CCN(CCO)CC2)n1	0.9615	6.849	19.09
CN(C)S(=O)(=O)NCc1cccnc1Oc1ccccc1F	11.32	4.301	24.04
COc1cccc(-c2noc(C3CCN(CC4CCCCC4)C3)n2)c1 (stereo not drawn)	3.976	11.43	-

6 of the entries, repeated:

{"compound": "C[C@@H]1CN(CCc2ccccc2)C[C@]12CCN(CC(=O)N(C)C)C2=O.O=C(O)C(F)(F)F", "C": -13.42}
{"compound": "C/C(=C/c1ccccc1)CNCc1cccc(C(N)=O)c1", "A": -4.538, "B": 7.937, "C": -3.592}
{"compound": "COCC(=O)NC1CC2(CCN(CCF)CC2)Oc2ccccc21", "stereo": "stereo not drawn", "A": 2.66, "B": 2.439}
{"compound": "O=c1ccc(S(=O)(=O)N2CCCC2)cn1CC1CCCCO1", "stereo": "stereo not drawn", "A": 3.145, "B": 12.39, "C": 3.858}
{"compound": "CN(C)CCOCc1nnc2n1CCN(Cc1ccco1)C2", "A": -45.29, "B": 36}
{"compound": "COCC1CN(Cc2ccncc2)Cc2nn(CC3CC3)cc21", "stereo": "stereo not drawn", "A": 6.853, "B": 17.65}